# The supplement of paper PMC12067093, “Discovery and optimisation of a covalent ligand for TRIM25 and its application to targeted protein ubiquitination” (Chemical Science, 2025)
# Protein sequences, listed by entry. Tags and fused reporters are not part of them. Lines headed by an entry give the natural chain unless they say otherwise; changes in a name come on top.
# UniProt Q8IWS0: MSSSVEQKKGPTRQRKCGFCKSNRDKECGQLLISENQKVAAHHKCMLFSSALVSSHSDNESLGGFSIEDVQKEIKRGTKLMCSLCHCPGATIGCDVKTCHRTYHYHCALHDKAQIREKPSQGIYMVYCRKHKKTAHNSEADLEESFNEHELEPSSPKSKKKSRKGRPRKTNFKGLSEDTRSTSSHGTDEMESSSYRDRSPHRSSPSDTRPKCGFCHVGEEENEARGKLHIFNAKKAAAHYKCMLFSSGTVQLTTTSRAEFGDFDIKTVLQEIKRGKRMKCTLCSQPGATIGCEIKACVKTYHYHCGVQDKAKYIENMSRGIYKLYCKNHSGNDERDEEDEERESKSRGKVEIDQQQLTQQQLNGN
# UniProt P00558: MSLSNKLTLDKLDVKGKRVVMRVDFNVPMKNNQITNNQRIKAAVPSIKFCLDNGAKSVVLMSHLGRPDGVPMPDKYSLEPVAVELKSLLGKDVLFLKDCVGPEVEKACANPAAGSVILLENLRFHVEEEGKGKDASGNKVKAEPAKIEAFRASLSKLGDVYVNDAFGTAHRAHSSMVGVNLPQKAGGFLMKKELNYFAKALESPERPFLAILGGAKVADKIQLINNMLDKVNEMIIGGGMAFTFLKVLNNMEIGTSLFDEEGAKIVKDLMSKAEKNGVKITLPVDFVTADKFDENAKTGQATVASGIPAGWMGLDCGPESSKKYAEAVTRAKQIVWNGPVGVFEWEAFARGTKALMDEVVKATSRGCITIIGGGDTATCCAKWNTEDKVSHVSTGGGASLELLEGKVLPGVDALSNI
# UniProt O75925, whole entry, looked up: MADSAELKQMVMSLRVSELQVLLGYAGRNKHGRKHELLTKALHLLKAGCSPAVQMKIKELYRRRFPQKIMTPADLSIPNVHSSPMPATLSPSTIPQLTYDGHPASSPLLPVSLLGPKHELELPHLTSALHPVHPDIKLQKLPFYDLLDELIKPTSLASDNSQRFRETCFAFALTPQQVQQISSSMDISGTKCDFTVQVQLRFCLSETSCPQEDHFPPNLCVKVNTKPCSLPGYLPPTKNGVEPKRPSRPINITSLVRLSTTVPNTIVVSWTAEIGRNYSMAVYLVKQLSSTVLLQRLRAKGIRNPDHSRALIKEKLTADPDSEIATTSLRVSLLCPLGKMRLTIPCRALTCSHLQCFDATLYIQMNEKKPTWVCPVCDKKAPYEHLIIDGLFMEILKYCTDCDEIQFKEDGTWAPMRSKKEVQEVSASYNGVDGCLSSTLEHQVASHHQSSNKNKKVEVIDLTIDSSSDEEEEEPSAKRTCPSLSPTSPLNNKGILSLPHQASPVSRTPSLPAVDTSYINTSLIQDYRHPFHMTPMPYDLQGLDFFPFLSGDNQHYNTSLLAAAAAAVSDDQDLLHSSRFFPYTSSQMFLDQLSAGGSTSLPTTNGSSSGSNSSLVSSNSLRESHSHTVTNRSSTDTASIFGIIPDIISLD
# UniProt Q16875: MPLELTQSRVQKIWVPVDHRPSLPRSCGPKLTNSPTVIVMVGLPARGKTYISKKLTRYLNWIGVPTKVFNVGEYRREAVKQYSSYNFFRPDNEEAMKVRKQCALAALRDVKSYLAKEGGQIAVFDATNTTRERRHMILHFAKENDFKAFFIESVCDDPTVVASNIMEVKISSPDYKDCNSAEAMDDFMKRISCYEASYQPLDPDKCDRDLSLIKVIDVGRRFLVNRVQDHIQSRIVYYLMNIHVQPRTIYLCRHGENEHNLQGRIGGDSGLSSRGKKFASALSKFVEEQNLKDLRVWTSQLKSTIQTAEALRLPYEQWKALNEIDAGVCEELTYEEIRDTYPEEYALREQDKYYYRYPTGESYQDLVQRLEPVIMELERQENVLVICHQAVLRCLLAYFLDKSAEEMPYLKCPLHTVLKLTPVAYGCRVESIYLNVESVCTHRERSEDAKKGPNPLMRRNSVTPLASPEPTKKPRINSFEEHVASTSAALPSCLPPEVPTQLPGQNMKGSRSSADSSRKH
# UniProt O94880: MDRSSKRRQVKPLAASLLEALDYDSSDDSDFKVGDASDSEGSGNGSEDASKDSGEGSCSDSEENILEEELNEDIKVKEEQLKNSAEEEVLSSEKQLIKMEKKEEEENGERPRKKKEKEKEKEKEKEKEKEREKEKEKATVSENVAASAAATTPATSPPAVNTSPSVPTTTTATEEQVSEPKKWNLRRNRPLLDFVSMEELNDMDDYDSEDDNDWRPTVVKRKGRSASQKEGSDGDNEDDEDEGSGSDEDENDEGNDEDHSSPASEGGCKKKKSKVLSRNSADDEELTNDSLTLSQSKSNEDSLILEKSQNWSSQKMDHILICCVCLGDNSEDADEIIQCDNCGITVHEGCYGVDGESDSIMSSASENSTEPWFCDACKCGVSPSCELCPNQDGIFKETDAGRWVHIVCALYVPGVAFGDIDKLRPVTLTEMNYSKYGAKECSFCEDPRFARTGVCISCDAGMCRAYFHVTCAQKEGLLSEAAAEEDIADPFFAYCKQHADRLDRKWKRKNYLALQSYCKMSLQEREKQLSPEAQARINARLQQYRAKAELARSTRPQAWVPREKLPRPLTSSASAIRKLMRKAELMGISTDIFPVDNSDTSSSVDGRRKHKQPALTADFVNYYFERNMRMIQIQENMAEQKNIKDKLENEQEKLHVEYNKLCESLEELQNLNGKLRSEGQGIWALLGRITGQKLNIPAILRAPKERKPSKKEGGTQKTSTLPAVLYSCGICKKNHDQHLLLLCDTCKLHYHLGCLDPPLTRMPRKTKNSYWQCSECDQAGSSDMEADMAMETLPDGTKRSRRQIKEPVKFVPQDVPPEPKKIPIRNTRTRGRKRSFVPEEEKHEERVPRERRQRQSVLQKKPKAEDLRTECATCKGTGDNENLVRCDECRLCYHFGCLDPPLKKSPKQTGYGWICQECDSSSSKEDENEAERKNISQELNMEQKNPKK
# UniProt P07737, whole entry, looked up: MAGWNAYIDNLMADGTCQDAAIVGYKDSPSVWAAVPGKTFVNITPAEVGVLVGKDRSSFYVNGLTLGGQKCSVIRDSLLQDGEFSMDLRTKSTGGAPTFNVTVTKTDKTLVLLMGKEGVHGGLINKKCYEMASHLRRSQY
# UniProt A6NDG6: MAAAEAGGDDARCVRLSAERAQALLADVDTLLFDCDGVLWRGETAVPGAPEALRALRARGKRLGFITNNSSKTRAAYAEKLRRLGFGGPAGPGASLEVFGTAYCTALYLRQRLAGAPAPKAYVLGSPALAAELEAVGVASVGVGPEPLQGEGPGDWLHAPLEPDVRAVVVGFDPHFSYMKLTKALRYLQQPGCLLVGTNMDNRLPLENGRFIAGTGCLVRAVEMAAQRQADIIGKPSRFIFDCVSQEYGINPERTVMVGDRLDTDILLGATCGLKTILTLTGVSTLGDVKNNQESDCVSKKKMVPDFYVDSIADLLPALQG
# UniProt O43175: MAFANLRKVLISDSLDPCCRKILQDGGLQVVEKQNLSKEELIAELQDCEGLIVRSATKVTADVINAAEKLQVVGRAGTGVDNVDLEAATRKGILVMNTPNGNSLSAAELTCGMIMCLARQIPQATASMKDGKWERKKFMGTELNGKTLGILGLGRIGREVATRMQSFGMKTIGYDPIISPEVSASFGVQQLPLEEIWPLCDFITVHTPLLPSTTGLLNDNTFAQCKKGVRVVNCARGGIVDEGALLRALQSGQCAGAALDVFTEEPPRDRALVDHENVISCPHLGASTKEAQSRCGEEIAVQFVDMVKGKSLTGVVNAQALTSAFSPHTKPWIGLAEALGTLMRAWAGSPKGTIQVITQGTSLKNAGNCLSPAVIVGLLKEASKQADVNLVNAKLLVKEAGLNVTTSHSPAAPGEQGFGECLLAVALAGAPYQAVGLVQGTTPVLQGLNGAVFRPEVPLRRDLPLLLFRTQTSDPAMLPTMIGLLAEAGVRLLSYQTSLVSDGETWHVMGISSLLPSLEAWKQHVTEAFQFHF
# UniProt P52209: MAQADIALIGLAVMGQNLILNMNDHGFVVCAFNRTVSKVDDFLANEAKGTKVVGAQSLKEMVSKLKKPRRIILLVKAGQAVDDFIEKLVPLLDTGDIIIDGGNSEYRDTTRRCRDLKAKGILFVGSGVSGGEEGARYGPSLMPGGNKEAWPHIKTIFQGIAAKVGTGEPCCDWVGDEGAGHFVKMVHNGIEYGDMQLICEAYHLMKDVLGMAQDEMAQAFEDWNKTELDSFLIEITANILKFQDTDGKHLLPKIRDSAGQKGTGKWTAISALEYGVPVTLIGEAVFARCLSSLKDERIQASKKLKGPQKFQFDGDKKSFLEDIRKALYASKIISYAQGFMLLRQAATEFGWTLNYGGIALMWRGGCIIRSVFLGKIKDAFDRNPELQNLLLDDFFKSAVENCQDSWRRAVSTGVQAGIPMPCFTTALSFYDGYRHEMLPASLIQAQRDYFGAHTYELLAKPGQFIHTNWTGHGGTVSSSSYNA
# UniProt O14832: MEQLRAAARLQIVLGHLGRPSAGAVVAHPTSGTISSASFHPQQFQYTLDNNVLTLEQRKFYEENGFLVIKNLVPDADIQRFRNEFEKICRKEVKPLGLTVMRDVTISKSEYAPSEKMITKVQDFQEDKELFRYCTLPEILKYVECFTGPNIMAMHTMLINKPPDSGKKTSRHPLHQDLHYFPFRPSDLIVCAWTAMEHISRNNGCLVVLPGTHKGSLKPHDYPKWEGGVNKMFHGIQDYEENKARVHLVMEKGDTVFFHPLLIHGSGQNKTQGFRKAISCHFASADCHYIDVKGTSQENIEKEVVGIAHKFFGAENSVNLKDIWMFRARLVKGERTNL
# UniProt O00443: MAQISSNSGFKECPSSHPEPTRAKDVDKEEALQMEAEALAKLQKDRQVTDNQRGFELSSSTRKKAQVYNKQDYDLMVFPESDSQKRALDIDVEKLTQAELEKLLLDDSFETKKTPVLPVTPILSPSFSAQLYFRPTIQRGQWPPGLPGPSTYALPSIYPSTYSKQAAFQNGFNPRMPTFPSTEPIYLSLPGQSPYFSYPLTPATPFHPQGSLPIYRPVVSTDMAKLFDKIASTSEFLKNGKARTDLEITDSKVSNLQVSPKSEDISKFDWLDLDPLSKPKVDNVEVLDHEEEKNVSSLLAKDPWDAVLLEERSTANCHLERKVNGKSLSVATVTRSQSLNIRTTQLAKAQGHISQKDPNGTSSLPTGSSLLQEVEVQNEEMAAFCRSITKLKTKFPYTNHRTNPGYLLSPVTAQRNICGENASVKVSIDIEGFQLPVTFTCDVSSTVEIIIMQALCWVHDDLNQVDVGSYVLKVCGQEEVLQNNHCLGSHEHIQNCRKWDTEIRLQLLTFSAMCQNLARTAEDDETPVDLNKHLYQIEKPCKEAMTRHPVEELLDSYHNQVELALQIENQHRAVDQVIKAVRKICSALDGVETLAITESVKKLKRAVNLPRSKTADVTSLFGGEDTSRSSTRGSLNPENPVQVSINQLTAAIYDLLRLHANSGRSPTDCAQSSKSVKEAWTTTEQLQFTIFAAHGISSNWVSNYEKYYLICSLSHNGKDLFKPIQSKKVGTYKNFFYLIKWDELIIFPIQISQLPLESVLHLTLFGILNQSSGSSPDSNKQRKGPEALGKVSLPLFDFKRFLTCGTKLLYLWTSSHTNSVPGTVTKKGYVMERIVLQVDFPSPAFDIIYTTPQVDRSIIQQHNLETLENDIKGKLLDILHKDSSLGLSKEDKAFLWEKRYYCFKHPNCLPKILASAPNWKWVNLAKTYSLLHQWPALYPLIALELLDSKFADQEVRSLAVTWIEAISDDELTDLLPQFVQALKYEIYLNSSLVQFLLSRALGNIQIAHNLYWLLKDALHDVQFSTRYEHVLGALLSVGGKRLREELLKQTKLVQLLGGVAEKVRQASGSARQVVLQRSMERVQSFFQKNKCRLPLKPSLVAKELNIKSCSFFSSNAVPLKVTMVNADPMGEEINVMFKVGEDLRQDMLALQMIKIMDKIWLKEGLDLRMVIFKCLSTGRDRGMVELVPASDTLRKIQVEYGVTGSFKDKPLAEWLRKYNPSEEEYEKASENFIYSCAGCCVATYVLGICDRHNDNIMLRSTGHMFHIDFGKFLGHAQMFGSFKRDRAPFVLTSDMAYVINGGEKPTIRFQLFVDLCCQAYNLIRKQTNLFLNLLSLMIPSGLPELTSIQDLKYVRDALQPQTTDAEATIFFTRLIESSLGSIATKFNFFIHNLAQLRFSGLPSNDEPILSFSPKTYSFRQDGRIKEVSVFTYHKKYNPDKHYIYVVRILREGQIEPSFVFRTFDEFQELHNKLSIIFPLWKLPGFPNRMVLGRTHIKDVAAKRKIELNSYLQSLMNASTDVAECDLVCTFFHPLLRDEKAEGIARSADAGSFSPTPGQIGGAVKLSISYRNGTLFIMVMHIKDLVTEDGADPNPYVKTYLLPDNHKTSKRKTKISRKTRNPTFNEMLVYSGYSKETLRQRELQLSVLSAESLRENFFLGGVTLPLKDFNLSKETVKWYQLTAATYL
# The other results are listed elsewhere or left out.
# Compound: Cc1cc(ccc1-c1ccccc1)C(=O)N1CCCN(CC1)C(=O)CCl [compound 10]
# Test: probe-labelled cysteine peptide fold change vs DMSO (competition) (log2 fold change); higher = less target engagement (more negative = stronger competition)
# Conditions: THP-1, incubation time: 4 h
# 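Further: competitive profiling in live THP-1 cells: cysteine peptides tagged with an iodoacetamide desthiobiotin (IA-DTB) probe, intensity after compound treatment relative to DMSO-treated cells.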
Target,probe-labelled cysteine peptide fold change (10 µM),probe-labelled cysteine peptide fold change (50 µM)
PHF6_Q8IWS0_128_EKPSQGIYMVYCR (UniProt Q8IWS0),0.0527,-0.0252
PEX14_O75381_342_MEVQGEEEKREDKEDEEDEEDDDVSHVDEEDCLGVQR (UniProt O75381),-0.196,-0.48
PGK1_P00558_108_ACANPAAGSVILLENLR (UniProt P00558),-0.0975,0.106
PHKA1_P46020_238_GGPQSVIHVLADEVQHCQSILNSLLPR (UniProt P46020),0.143,-0.161
PELP1_Q8IZL8_645_VPPLQPMGPTCPTPAPVPPPEAPSPFR (UniProt Q8IZL8),-0.103,0.0512
PIGT_Q969N2_182_EVVCTENLTPWKK (UniProt Q969N2),-0.128,-0.12
PIAS1_O75925_402_YCTDCDEIQFK (UniProt O75925),-0.0248,-0.163
PFKFB3_Q16875_102_QCALAALR (UniProt Q16875),-0.03,-0.0221
PHF14_O94880-2_607_LCYHFGCLDPPLK (UniProt O94880),0.0735,0.0954
PHF6_Q8IWS0_20_KCGFCK (UniProt Q8IWS0),-0.0505,-0.884
PGM3_O95394_200_QASCSGDEYR (UniProt O95394),-0.36,-0.707
PELP1_Q8IZL8_71_SAPHLPGLMCLLR (UniProt Q8IZL8),-1.13,-0.883
PHKA2_P46019_238_SVIHVLPDEVEHCQSILFSMLPR (UniProt P46019),0.0243,-0.294
PFN1_P07737_128_CYEMASHLR (UniProt P07737),-0.0495,0.0955
PIAS3_Q9Y6X2_366_KPTWTCPVCDK (UniProt Q9Y6X2),0.072,0.0584
PGP_A6NDG6_272_LDTDILLGATCGLK (UniProt A6NDG6),0.0876,0.334
PELO_Q9BRX2_175_GNCSQHDR (UniProt Q9BRX2),0.249,0.198
PHF14_O94880_471_AYFHVTCAQK (UniProt O94880),0.15,0.39
PHGDH_O43175_19_KVLISDSLDPCCR (UniProt O43175),-0.213,-0.743
PHC3_Q8NDX5_808_FCTMSCAK (UniProt Q8NDX5),-0.142,-0.367
PGLYRP2_Q96PD5_379_EFTEAFLGCPAIHPR (UniProt Q96PD5),-0.1,-0.0269

Target,probe-labelled cysteine peptide fold change (10 µM),probe-labelled cysteine peptide fold change (50 µM)
PGD_P52209_170_VGTGEPCCDWVGDEGAGHFVK (UniProt P52209),-0.195,-0.673
PECAM1_P16284_476+481_DNPTEDVEYQCVADNCHSHAK (UniProt P16284),-0.179,-0.426
PEX6_Q13608_358_VVQEGDVLCVPTIGQVEILEGSPEK (UniProt Q13608),-0.199,0.186
PFKP_Q01813_718_FTTDDSICVLGISKR (UniProt Q01813),0.094,-0.636
PFAS_O15067_318_HVVFTAETHNFPTGVCPFSGATTGTGGR (UniProt O15067),-0.0528,0.119
PIK3CB_P42338_116_SCDPGEK (UniProt P42338),-0.0749,-0.135
PEX19_P40855_229_ICEQFEAETPTDSETTQK (UniProt P40855),0.283,-0.035
PFKFB3_Q16875_155_AFFIESVCDDPTVVASNIMEVK (UniProt Q16875),0.0401,0.00669
PGP_A6NDG6_193_YLQQPGCLLVGTNMDNR (UniProt A6NDG6),0.0138,0.0531
PECR_Q9BY49_191_SLALEWACSGIR (UniProt Q9BY49),0.0903,-0.863
PEX5_P50542_566_YNLGISCINLGAHR (UniProt P50542),0.241,0.214
PELP1_Q8IZL8_191_DISMNHLPGLLTSLLGLRPECEQSALEGMK (UniProt Q8IZL8),-0.134,0.18
PFKP_Q01813_411_TNCNVAVINVGAPAAGMNAAVR (UniProt Q01813),-0.0719,0.0388
PGK1_P00558_367+379_GCITIIGGGDTATCCAK (UniProt P00558),0.296,-0.173
PHKA1_P46020_697_FQAAVQTTCDLMSLVTK (UniProt P46020),-0.0445,-0.809
PFKL_P17858_170_TYSHLNIAGLVGSIDNDFCGTDMTIGTDSALHR (UniProt P17858),-0.0126,0.188
PFAS_O15067_831_APGSLVISAYAVCPDITATVTPDLK (UniProt O15067),-0.133,-0.221
PHLPP1_O60346_1028_CVPLLTGHPHLK (UniProt O60346),0.0875,0.696
PHIP_Q8WWQ0_522_CSPDGQHFACTDSHGHLLIFGFGSSSK (UniProt Q8WWQ0),0.205,0.11
PI4KA_P42356_1215_DCDPQLLHHLCWGPLR (UniProt P42356),0.181,0.179
PHKA1_P46020_844_KVEALDEACTDLLSHQK (UniProt P46020),-0.252,0.0877

Target,probe-labelled cysteine peptide fold change (10 µM),probe-labelled cysteine peptide fold change (50 µM)
PHF8_Q9UPP1-2_8_ASVPVYCLCR (UniProt Q9UPP1),0.206,0.544
PIAS1_O75925_192_CDFTVQVQLR (UniProt O75925),0.0184,-0.123
PHKA1_P46020_24_LVQQTILCHQNPVTGLLPASYDQK (UniProt P46020),-0.175,-0.254
PFN1_P07737_128_KCYEMASHLR (UniProt P07737),-0.333,-0.673
PFKL_P17858_708_VFANAPDSACVIGLKK (UniProt P17858),-0.122,-0.191
PELP1_Q8IZL8_536_TILMCGPLIK (UniProt Q8IZL8),0.0457,0.49
PHYH_O14832_145_YVECFTGPNIMAMHTMLINKPPDSGKK (UniProt O14832),-0.0633,-0.302
PIK3C2A_O00443_418_NICGENASVK (UniProt O00443),-0.0686,-0.555
PGD_P52209_422_AVSTGVQAGIPMPCFTTALSFYDGYR (UniProt P52209),0.251,0.148
PHIP_Q8WWQ0_954_RCPFVPQMGDEVYYFR (UniProt Q8WWQ0),-0.204,-0.506
PHGDH_O43175_295_CGEEIAVQFVDMVK (UniProt O43175),-0.0946,-0.0481
PGGT1B_P53609_369_QCSENVHIST (UniProt P53609),-0.166,-0.254
PFN1_P07737_71_CSVIRDSLLQDGEFSMDLR (UniProt P07737),-0.162,-0.344
PGM3_O95394_93_LVDPLGEMLAPSWEEHATCLANAEEQDMQR (UniProt O95394),0.355,0.261
PFKP_Q01813_641_NESCSENYTTDFIYQLYSEEGK (UniProt Q01813),-0.131,0.111
PECAM1_P16284_405_SNTVQIVVCEMLSQPR (UniProt P16284),0.157,0.0756
PHF6_Q8IWS0_212+215_CGFCHVGEEENEAR (UniProt Q8IWS0),0.155,-0.762
PHF6_Q8IWS0_242_CMLFSSGTVQLTTTSR (UniProt Q8IWS0),-0.00964,0.0332
PFKM_P08237_709_IFANTPDSGCVLGMR (UniProt P08237),-0.284,-0.261
PGP_A6NDG6_193_YLQQPGCLLVGTNMDNRLPLENGR (UniProt A6NDG6),0.0297,-0.192
PHF14_O94880_495_EGLLSEAAAEEDIADPFFAYCK (UniProt O94880),-0.0135,0.6

Target,probe-labelled cysteine peptide fold change (10 µM),probe-labelled cysteine peptide fold change (50 µM)
PHGDH_O43175_18_KVLISDSLDPCCR (UniProt O43175),-0.156,-0.857
PGK1_P00558_379_GCITIIGGGDTATCCAK (UniProt P00558),0.0575,0.231
PEX5_P50542_11_ELVEAECGGANPLMK (UniProt P50542),-0.0314,-0.0959
PIK3C2A_O00443_317_STANCHLER (UniProt O00443),-0.0954,-0.473
PGGT1B_P53609_327+338_WPDSHPDALHAYFGICGLSLMEESGICK (UniProt P53609),-0.0647,-0.014
PHF10_Q8WUB8_134_ELNVITETQCTLGLTALR (UniProt Q8WUB8),0.0174,0.223
PGAM5_Q96HS1_229_ADARQEEDSYEIFICHANVIR (UniProt Q96HS1),-0.217,-0.374
PHIP_Q8WWQ0_28_FLEDGPCQQAAQVLIR (UniProt Q8WWQ0),0.0847,0.146
PFKFB2_O60825_255_TIYLCR (UniProt O60825),-0.0341,0.0668
PFAS_O15067_336_DVQCTGR (UniProt O15067),-0.0803,0.084
PGM2_Q96G03_573_YYAELCAPPGNSDPEQLKK (UniProt Q96G03),-0.148,-0.304
PHF14_O94880-2_607+612_LCYHFGCLDPPLK (UniProt O94880),-0.0595,-0.438
PHYH_O14832_205_NNGCLVVLPGTHK (UniProt O14832),0.163,0.091
PHF12_Q96QT6_613_TENATGPSSCPQR (UniProt Q96QT6),-0.265,-0.482
PHF8_Q9UPP1_86_AADIDLYHCPNCEVLHGPSIMK (UniProt Q9UPP1),-8.84e-05,-0.0911
PEX6_Q13608_474_GPPGCGK (UniProt Q13608),0.0332,-0.0326
PHIP_Q8WWQ0_79_HLAPDHLLQICHR (UniProt Q8WWQ0),0.286,0.187
PGAM1_P18669_55_DAGYEFDICFTSVQKR (UniProt P18669),-0.0838,-0.521
PHGDH_O43175_19_VLISDSLDPCCR (UniProt O43175),-0.0779,-0.356
PHYKPL_Q8IUZ5_288_SIGNGHPVACVAATQPVAR (UniProt Q8IUZ5),0.0774,0.167
